The match of structure and compound is tentative.
Target: androgen receptor (Homo sapiens, UniProt P10275)
Experiment: AR antagonist cell assay (MDA-MB453-MMTV clone 54-19 luciferase reporter, 100 pM DHT)
Conditions: read-out: AR Cell IC50; MDA-MB453-MMTV clone 54-19, inhibition of 100 pM DHT induction, 17 hr; mean of multiple tests

Chains of the proteins cited; added tags and fusions are not shown.
UniProt P10275, whole entry Q868H: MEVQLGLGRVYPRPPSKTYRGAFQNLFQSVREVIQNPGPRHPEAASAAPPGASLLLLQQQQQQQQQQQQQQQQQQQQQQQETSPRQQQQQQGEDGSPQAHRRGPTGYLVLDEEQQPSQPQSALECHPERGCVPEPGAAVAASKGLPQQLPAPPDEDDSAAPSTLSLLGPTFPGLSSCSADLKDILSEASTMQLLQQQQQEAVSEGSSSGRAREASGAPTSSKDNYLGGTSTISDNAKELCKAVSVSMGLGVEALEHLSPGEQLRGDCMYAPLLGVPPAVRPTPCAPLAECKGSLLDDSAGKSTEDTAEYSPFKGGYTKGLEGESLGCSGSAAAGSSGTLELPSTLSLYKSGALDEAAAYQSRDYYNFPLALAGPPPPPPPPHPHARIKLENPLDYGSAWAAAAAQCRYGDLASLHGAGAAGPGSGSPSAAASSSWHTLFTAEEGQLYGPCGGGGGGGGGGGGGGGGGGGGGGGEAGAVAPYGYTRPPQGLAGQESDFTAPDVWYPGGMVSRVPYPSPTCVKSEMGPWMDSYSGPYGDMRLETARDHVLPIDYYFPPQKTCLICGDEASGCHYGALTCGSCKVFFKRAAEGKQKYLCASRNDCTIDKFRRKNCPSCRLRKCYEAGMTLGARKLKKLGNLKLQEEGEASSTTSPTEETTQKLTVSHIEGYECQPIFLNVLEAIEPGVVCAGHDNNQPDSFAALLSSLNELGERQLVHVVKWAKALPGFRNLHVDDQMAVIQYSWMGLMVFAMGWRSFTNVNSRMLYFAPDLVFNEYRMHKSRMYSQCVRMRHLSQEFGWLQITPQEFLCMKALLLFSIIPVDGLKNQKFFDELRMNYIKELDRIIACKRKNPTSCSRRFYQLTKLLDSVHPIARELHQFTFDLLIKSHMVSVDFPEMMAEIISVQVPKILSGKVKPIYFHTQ

With CC(C)CC(Oc1ccc(C#N)c(C(F)(F)F)c1)C(=O)NC(C)Cc1ccsc1 (stereo not shown) the IC50 was greater than 1 µM.

Source: US7507860B2 (Pfizer Inc., priority 2004, dated 2009)
